Measured values as given in PubChem BioAssay AID292 (DTP/NCI, 2004).
The list shows only some results of the screen, not a fair sample: it is rich in T/C values a quarter to a half above the control, in often repeated tests (any T/C) and in doses without a T/C. Further doses and runs are listed elsewhere. T/C gives the treated animals as a percentage of the vehicle group. Some doses have a count of surviving animals in place of a T/C: the source files T/C as zero there, which appears to mark a toxic dose or a test without result, not a measured value. Some survivor counts are full or nearly so, which does not show that the dose was tolerated: survival well below the control is almost never listed, so the zero probably covers shortened survival too. Counts of survivors are from the toxicity check (mostly the fifth day) where no day follows; animals may have died later. Schedules are NCI's codes, taken here to give the interval after Q, in days (D) or hours (H), and the number of doses after X. Some entries hold several experiments; the results are listed from low to high. Where survival is the endpoint, this PubChem deposit counts one and a half times the control or more as active, and values a quarter to a half above the control carry no call in these data; other NCI protocols may use other cut-offs. Some T/C values carry the count of animals alive at the toxicity check (mostly the fifth day); where none is given, no animal had died by that day.

System: B6C3F1 mice, ip Sarcoma M5076, median survival T/C
Assay: NCI In Vivo Anticancer Drug Screen. Data for tumor model Sarcoma M5076 (intraperitoneal) in B6C3F1 mice
Conditions: T/C endpoint: median survival time, higher T/C = longer survival
In short: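 Mice carrying the transplanted tumour received compound treatment. Survival was recorded, and each value is the treated-group measurement divided by that of the vehicle-dosed control group.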

[1] = dose: 800.0 mg/kg/injection, schedule: Q04DX004 (ip), vehicle: saline with Tween-80
[2] = dose: 400.0 mg/kg/injection, schedule: Q04DX004 (ip), vehicle: saline with Tween-80
[3] = dose: 400.0 mg/kg/injection, schedule: Q04DX004 (ip), vehicle: Klucel (hydroxypropylcellulose) (HPC)
[4] = dose: 100.0 mg/kg/injection, schedule: Q04DX004 (ip), vehicle: saline with Tween-80
[5] = dose: 200.0 mg/kg/injection, schedule: Q04DX004 (ip), vehicle: saline with Tween-80
[6] = dose: 800.0 mg/kg/injection, schedule: Q04DX004 (ip), vehicle: Klucel (hydroxypropylcellulose) (HPC)
[7] = dose: 50.0 mg/kg/injection, schedule: Q04DX004 (ip), vehicle: saline with Tween-80

CC(C)(O)/C=C/C(=O)[C@](C)(O)[C@H]1[C@H](O)C[C@@]2(C)[C@@H]3CC=C4[C@@H](C=C(O)C(=O)C4(C)C)[C@]3(C)C(=O)C[C@]12C
T/C (dose: 1.0 mg/kg/injection, schedule: Q04DX004 (ip), vehicle: water): 128 % of control [9 of 10 alive on day 14]
survivor count (dose: 2.0 mg/kg/injection, schedule: Q04DX004 (ip), vehicle: water): 1 of 10 on day 14
survivor count (dose: 2.78 mg/kg/injection, schedule: Q04DX004 (ip), vehicle: water): 0 of 10 on day 14
survivor count (dose: 4.0 mg/kg/injection, schedule: Q04DX004 (ip), vehicle: water): 0 of 10 on day 14
survivor count (dose: 4.63 mg/kg/injection, schedule: Q04DX004 (ip), vehicle: water): 0 of 10 on day 14
survivor count (dose: 7.72 mg/kg/injection, schedule: Q04DX004 (ip), vehicle: water): 0 of 10 on day 14
survivor count (dose: 8.0 mg/kg/injection, schedule: Q04DX004 (ip), vehicle: water): 0 of 10 on day 14

Cc1[nH]c(=O)[nH]c(=O)c1C=O
survivor count [1]: 4 of 10 on day 14

CCN(CC)CCOC(=O)c1cc2cc3cc(C(=O)OCCN(CC)CC)c(=O)oc3c(C)c2oc1=O
survivor count (dose: 300.0 mg/kg/injection, schedule: Q04DX004 (ip), vehicle: saline): 8 of 10 on day 14

COc1cc2c(cc1OC)-c1c3c(cc4c1[C@@H](C2)N(C)CC4)OCO3
survivor count (dose: 200.0 mg/kg/injection, schedule: Q04DX004 (ip), vehicle: distilled water + Tween-80): 0 of 10 on day 14

O=S1ON=C(C2CCC(C3=NOS(=O)O3)C2)O1 (stereo unspecified)
survivor count [2]: 3 of 10 on day 14

CN(C)CCCOc1nc2c(c(=O)n(C)c(=O)n2C)n1C (tested in a mixture with another compound)
T/C (dose: 12.5 mg/kg/injection, schedule: Q04DX004 (ip), vehicle: Klucel (hydroxypropylcellulose) (HPC)): 128 % of control
T/C (dose: 25.0 mg/kg/injection, schedule: Q04DX004 (ip), vehicle: Klucel (hydroxypropylcellulose) (HPC)): 141 and 147 % of control
survivor count [3]: 0 of 8 on day 14

NC(=O)c1ccc[n+](Cc2c(Cl)cccc2Cl)c1
survivor count (dose: 200.0 mg/kg/injection, schedule: Q04DX004 (ip), vehicle: saline): 0 of 10 on day 9

O=C(O)c1nn(-c2ccccc2-c2n[nH]c(=O)[nH]c2=O)c(=O)[nH]c1=O
survivor count [2]: 10 of 10 on day 14
survivor count [1]: 8 of 10 on day 14

CCOC(=O)c1cc(-c2ccccc2)c(OC)c(=O)nc1-c1ccccc1
survivor count [4]: 10 of 10 on day 14
survivor count [5]: 10 of 10 on day 14
survivor count [2]: 10 of 10 on day 14
survivor count [1]: 10 of 10 on day 14

CCC1(O)C(=O)OCc2c1cc1n(c2=O)Cc2cc3cc(N)ccc3nc2-1 (stereo unspecified)
T/C (dose: 3.75 mg/kg/injection, schedule: Q04DX004 (ip), vehicle: suspension in saline): 141 % of control
T/C (dose: 5.0 mg/kg/injection, schedule: Q04DX004 (ip), vehicle: suspension in saline): 126 % of control
survivor count (dose: 30.0 mg/kg/injection, schedule: Q04DX004 (ip), vehicle: suspension in saline): 4 of 10 on day 14
survivor count (dose: 60.0 mg/kg/injection, schedule: Q04DX004 (ip), vehicle: suspension in saline): 0 of 10 on day 14

COc1ccc(Nc2c3sc4cc(OC)ccc4nc-3c3ccccc3c2=O)cc1
survivor count (dose: 300.0 mg/kg/injection, schedule: Q04DX004 (ip), vehicle: saline with Tween-80): 9 of 10 on day 14
survivor count (dose: 600.0 mg/kg/injection, schedule: Q04DX004 (ip), vehicle: saline with Tween-80): 9 of 10 on day 14

CC(/C=C/C1OC(=O)C=CC1C)=C\C(C)C/C=C/C(C)=C/C(C)C(=O)C(C)C(O)C(C)C/C(C)=C/C(=O)O (stereo unspecified)
T/C (dose: 200.0 micrograms/kg/injection, schedule: Q04DX004 (ip), vehicle: saline + alcohol): 145 % of control

CC[C@@H](C)[C@H]([C@H](CC(=O)N1CCC[C@@H]1[C@@H](OC)[C@H](C)C(=O)N[C@H](Cc1ccccc1)c1nccs1)OC)N(C)C(=O)[C@H](NC(=O)[C@@H](C(C)C)N(C)C)C(C)C
T/C (dose: 4.0 micrograms/kg/injection, schedule: Q04DX004 (ip), vehicle: saline + alcohol): 140 % of control
T/C (dose: 13.0 micrograms/kg/injection, schedule: Q04DX004 (ip), vehicle: saline + alcohol): 142 % of control
T/C (dose: 22.0 micrograms/kg/injection, schedule: Q04DX004 (ip), vehicle: saline + alcohol): 131 % of control

N#Cc1c(-c2ccccc2)c(-c2ccccc2)nn(CC(=O)O)c1=O
survivor count (dose: 400.0 mg/kg/injection, schedule: Q04DX004 (ip), vehicle: distilled water + Tween-80): 4 of 10 on day 14
survivor count (dose: 800.0 mg/kg/injection, schedule: Q04DX004 (ip), vehicle: distilled water + Tween-80): 0 of 10 on day 14

COc1ccc(OC)c(N2C(=O)C(=O)C(C(C)=O)C2=O)c1 (stereo unspecified)
survivor count (dose: 200.0 mg/kg/injection, schedule: Q04DX004 (ip), vehicle: Klucel (hydroxypropylcellulose) (HPC)): 0 of 10 on day 14
survivor count [3]: 0 of 10 on day 14
survivor count [6]: 0 of 10 on day 14

C[C@@]12C(=O)OC(=O)[C@]1(C)[C@H]1CC[C@@H]2O1
survivor count (dose: 2000.0 micrograms/kg/injection, schedule: Q01DX009 (ip), vehicle: acetone): 1 of 10 on day 14

CNC(=S)C#N
survivor count (dose: 6.25 mg/kg/injection, schedule: Q04DX004 (ip), vehicle: saline + Tween-80 + alcohol): 5 of 8 on day 14
survivor count (dose: 25.0 mg/kg/injection, schedule: Q04DX004 (ip), vehicle: saline + Tween-80 + alcohol): 6 of 10 on day 14 and 10 of 10 on day 14
survivor count (dose: 50.0 mg/kg/injection, schedule: Q04DX004 (ip), vehicle: saline + Tween-80 + alcohol): 4 of 10 on day 14
survivor count (dose: 100.0 mg/kg/injection, schedule: Q04DX004 (ip), vehicle: saline + Tween-80 + alcohol): 0 of 10 on day 14
survivor count (dose: 200.0 mg/kg/injection, schedule: Q04DX004 (ip), vehicle: saline + Tween-80 + alcohol): 0 of 10 on day 14
survivor count (dose: 400.0 mg/kg/injection, schedule: Q04DX004 (ip), vehicle: saline + Tween-80 + alcohol): 0 of 10 on day 14

O=C1NC(=O)N(c2ccc(Cl)c(Cl)c2)C1=O
survivor count [6]: 0 of 10 on day 14

CCOc1ccc(N2C(=O)C(=O)C(C(C)=O)C2=O)cc1 (stereo unspecified)
survivor count [6]: 3 of 10 on day 14

COc1ccc(CCN2C(=O)C(=O)N(c3cccc4c(N5C(=O)C(=O)N(CCc6ccc(OC)c(OC)c6)C5=O)cccc34)C2=O)cc1OC
survivor count (dose: 300.0 mg/kg/injection, schedule: Q04DX004 (ip), vehicle: Klucel (hydroxypropylcellulose) (HPC)): 10 of 10 on day 14

NNC(=O)c1ccncc1
survivor count (dose: 400.0 mg/kg/injection, schedule: Q04DX004 (ip), vehicle: saline): 0 of 10 on day 9

O=C1C=C(N2CC2)C(=O)C(N2CC2)=C1N1CC1
survivor count (dose: 25.0 micrograms/kg/injection, schedule: Q04DX004 (ip), vehicle: saline): 0 of 10 on day 14
survivor count (dose: 50.0 micrograms/kg/injection, schedule: Q04DX004 (ip), vehicle: saline): 0 of 10 on day 14
survivor count (dose: 100.0 micrograms/kg/injection, schedule: Q04DX004 (ip), vehicle: saline): 0 of 10 on day 14
survivor count (dose: 200.0 micrograms/kg/injection, schedule: Q04DX004 (ip), vehicle: saline): 0 of 10 on day 14
survivor count (dose: 400.0 micrograms/kg/injection, schedule: Q04DX004 (ip), vehicle: saline): 0 of 10 on day 14

Nc1ccc2c(c1)C1(CCC2)NC(=O)NC1=O (stereo unspecified)
survivor count [1]: 9 of 10 on day 14

CO[C@@]12[C@@H]3N[C@@H]3CN1C1=C(C(=O)C(N3CCCC3)=C(C)C1=O)[C@@H]2COC(N)=O
survivor count (dose: 25.0 mg/kg/injection, schedule: Q04DX004 (ip), vehicle: saline with Tween-80): 0 of 10 on day 14
survivor count [7]: 0 of 10 on day 14
survivor count [4]: 0 of 10 on day 14

O=c1c2ccccc2c2nccn2c2ccccc12
survivor count [7]: 10 of 10 on day 14
survivor count [4]: 10 of 10 on day 14
survivor count [5]: 10 of 10 on day 14
survivor count [2]: 10 of 10 on day 14
survivor count [1]: 8 of 10 on day 14
